Patent EP0378671B1, “INSULINOMIMETIC AND INSULIN RECEPTOR BINDING SITE PEPTIDES” (CITY OF HOPE, priority 1988, dated 1997)
At least one peptide structure holds a part that was inferred or is arguable (an end, a ring closure or a residue). Where a SMILES comes first, the peptide text is derived from it.

Key:
^125I-IGF I = experiment: Binding of 125I-IGF I tracer to a peptide suspension; conditions: compared with ^125I-insulin binding
[1] = tested on: ^125I-hGH (human growth hormone); experiment: Binding of 125I-hGH tracer to a peptide suspension
[2] = tested on: ^125I-EGF (epidermal growth factor); experiment: Binding of 125I-EGF tracer to a peptide suspension
isolated rat adipocytes = experiment: Lipogenesis assay: incorporation of 3-[3H] glucose into lipids; assay type: cell-based
Protocol: The lipogenesis assay was conducted according to Smal, et al., J.Biol.Chem. 262:11071-11079 (1987). Dissected epididymal and retroperitoneal fat pads were digested under vigorous shaking at 37°C for 30 min with collagenase (1.0 mg/ml) in Krebs-Ringer-Heps (KRH) buffer, pH 7.4, 35 mg/ml dialyzed bovine serum albumin (BSA), 0.27 mM glucose. After filtration on cheesecloth and 4 washes in KRH with 10 mg/ml BSA, the adipocytes were preincubated for 4 hours at 37°C in the same buffer.
The lipogenesis assay was performed in triplicate in 6 ml polyethylene vials by adding successively 400 µl of adipocyte suspension (80 X l0^3 cells/ml), 50 µl of KRH buffer pH 7.4 (1% BSA, 0.27 mM glucose) without hormone (basal lipogenesis) or with insulin or receptor-derived peptides at the indicated concentrations, and 50 µl D-[3-^3H]-glucose in a total volume of 0.5 ml. The vials were incubated 2 hours at 37°C under gentle shaking. The incubation was interrupted by adding 5 ml/tube of toluene scintillator (1 liter toluene + 0.3 g of 1,4bis[2-(4-methyl-5 phenyloxazolyl)] benzene and 5 g of 2,5-diphenyloxazole under vigorous shaking (30s to break the cells) followed by a rest of at least 1 hour to allow extraction of lipids into the toluene phase before counting. The counting efficiencies for the different samples were measured by internal standardization with quenched tritiated standards. The incorporation of D-[3-^3H]-glucose into lipids is expressed in cpm X 10^-3/tube ± 1 standard deviation.
To provide the data illustrated by Figure 12, a lipogenesis assay in the absence of hormone (basal), or with 10 µg/ml of insulin or 10 µg/ml of peptide V, in the absence or presence of anti-insulin antibody at a dilution of 1:500, was performed as described in detail with respect to Example I.
To generate the data depicted by Figure 13, a lipogenesis assay in the absence of hormone (basal), or with 10 µg/ml of insulin or 100 µg/ml of peptide V, in the absence or presence of kinase inhibitors staurosporine (10 µg/ml) or sphingosine (100 µM), was performed as described in detail with respect to Example I.

SMILES: CC[C@H](C)[C@H](NC(=O)[C@@H](NC(=O)[C@H](CC(C)C)NC(=O)[C@H](C)NC(=O)[C@H](Cc1ccc(O)cc1)NC(=O)[C@H](CC(N)=O)NC(=O)[C@H](Cc1ccccc1)NC(=O)[C@H](Cc1ccccc1)NC(=O)[C@H](CC(C)C)NC(=O)[C@@H](N)CCCNC(=N)N)C(C)C)C(=O)N[C@@H](Cc1ccccc1)C(=O)N[C@@H](CCC(=O)O)C(=O)N[C@@H](CCSC)C(=O)N[C@H](C(=O)N[C@@H](Cc1c[nH]cn1)C(=O)N[C@@H](CC(C)C)C(=O)N[C@@H](CCCCN)C(=O)N[C@@H](CCC(=O)O)C(=O)O)C(C)C [Sequence I] (H-RLFFNYALVIFEMVHLKE-OH)
- binding of ^125I-IGF I (^125I-IGF I): less well
- specific binding of ^125I-hGH [1]: no specific binding
- specific binding of ^125I-EGF [2]: no specific binding

SMILES: CC[C@H](C)[C@H](NC(=O)[C@@H](NC(=O)[C@H](CC(C)C)NC(=O)[C@H](C)NC(=O)[C@H](Cc1ccc(O)cc1)NC(=O)[C@H](CC(N)=O)NC(=O)[C@H](Cc1ccccc1)NC(=O)[C@H](CC(C)C)NC(=O)[C@H](CC(C)C)NC(=O)[C@H](CCCNC(=N)N)NC(=O)[C@H](CO)NC(=O)CNC(=O)[C@H](CCCNC(=N)N)NC(=O)[C@@H](N)CCCCN)C(C)C)C(=O)N[C@@H](Cc1ccccc1)C(=O)N[C@@H](CCC(=O)O)C(=O)N[C@@H](CCSC)C(=O)N[C@H](C(=O)N[C@@H](Cc1c[nH]cn1)C(=O)N[C@@H](CC(C)C)C(=O)N[C@@H](CCCCN)C(=O)N[C@@H](CCCCN)C(=O)O)C(C)C [Sequence V] (H-KRGSRLLFNYALVIFEMVHLKK-OH)
- lipogenetic activity in presence of anti-insulin antibody (isolated rat adipocytes; 10 µg/ml of peptide V, polyclonal anti-insulin antibody Sigma #1-8510, dilution 1:500 (Figure 12)): inactivated
- stimulation of fat cell lipogenesis in presence of sphingosine (isolated rat adipocytes; 100 µg/ml of peptide V, sphingosine 100 µM (Figure 13)): blocked
- stimulation of fat cell lipogenesis in presence of staurosporine (isolated rat adipocytes; 100 µg/ml of peptide V, staurosporine 10 µg/ml (Figure 13)): blocked
- lipogenetic effect in presence of antibody against peptide 81-91 (isolated rat adipocytes; antibody against peptide 81-91): unable to block

SMILES: C[C@@H](O)[C@H](NC(=O)[C@H](CCCCN)NC(=O)[C@@H]1CCCN1C(=O)[C@@H](NC(=O)[C@H](Cc1ccc(O)cc1)NC(=O)[C@H](Cc1ccccc1)NC(=O)[C@H](Cc1ccccc1)NC(=O)CN)[C@@H](C)O)C(=O)O [insulin octapeptide B23-30, reference compound]
- stimulation of lipogenesis (isolated rat adipocytes; 2 hours at 37°C, compared with insulin and basal (Figure 10)): totally inactive
